# Assay results taken from article PMC5996148.
# The chains behind the UniProt entries cited, without tags or fusion partners.
# UniProt Q16143, whole entry: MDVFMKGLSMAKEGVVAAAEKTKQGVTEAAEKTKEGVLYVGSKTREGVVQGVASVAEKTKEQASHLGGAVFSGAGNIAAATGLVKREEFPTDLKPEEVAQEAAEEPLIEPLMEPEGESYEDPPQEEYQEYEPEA
# Some of the results follow. For some assays here: The exact form of the protein is not confirmed.
# What was measured:
# Test in all cases: protein microarray (ProtoArray v5.0), streptavidin-Alexa Fluor 647
# Details in all cases: 3'-biotin; 20 mM Tris (pH 7.5), 5 mM MgCl2, 100 mM KCl, 0.1% Tween-20, A/T-rich and random oligonucleotide blockers; temperature not stated; high values mean tight binding
# SLC7A1 (human) = system: SLC7A1 (human)
# SLC9A3R1 (human) = system: SLC9A3R1 (human)
# SMAD1 (human) = system: SMAD1 (human)
# SMARCB1 (human) = system: SMARCB1 (human)
# SMCP (human) = system: SMCP (human)
# SMOX (human) = system: SMOX (human)
# SMPD3 (human) = system: SMPD3 (human)
# SMR3B (human) = system: SMR3B (human)
# SMUG1 (human) = system: SMUG1 (human)
# SNAP23 (human) = system: SNAP23 (human)
# SNAP29 (human) = system: SNAP29 (human)
# SNAPC5 = target: T1, SNAPC5 (UniProt O75971)
# T1 sequence: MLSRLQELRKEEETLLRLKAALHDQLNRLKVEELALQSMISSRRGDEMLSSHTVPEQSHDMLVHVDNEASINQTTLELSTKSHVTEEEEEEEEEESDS
# SNCA (human) = system: SNCA (human)
# SNCB = SNCB (UniProt Q16143)
# SNF1LK2 (human) = system: SNF1LK2 (human)
# SNF8 (human) = system: SNF8 (human)
# SNFT = target: T2, SNFT (UniProt Q9NR55)
# T2 sequence: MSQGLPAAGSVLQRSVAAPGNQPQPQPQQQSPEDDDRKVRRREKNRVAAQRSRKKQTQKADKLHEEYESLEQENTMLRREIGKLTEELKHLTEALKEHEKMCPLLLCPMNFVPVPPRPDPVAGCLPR
# SNIP (human) = system: SNIP (human)
# SNX1 (human) = system: SNX1 (human)
# SNX10 (human) = system: SNX10 (human)
sequence,measurement,setting,value
GGGAGGCTGAGGCAGG [G4-1 biotinylated (PQS2)],binding signal,SLC7A1 (human),-0.361 z-score
same,binding signal,SLC9A3R1 (human),-0.296 z-score
same,binding signal,SMAD1 (human),-0.352 z-score
same,binding signal,SMARCB1 (human),-0.253 z-score
same,binding signal,SMCP (human),-0.348 z-score
same,binding signal,SMOX (human),-0.274 z-score
same,binding signal,SMPD3 (human),-0.339 z-score
same,binding signal,SMR3B (human),-0.319 z-score
same,binding signal,SMUG1 (human),-0.327 z-score
same,binding signal,SNAP23 (human),-0.334 z-score
same,binding signal,SNAP29 (human),-0.305 z-score
same,binding signal,SNAPC5,-0.346 z-score
same,binding signal,SNCA (human),-0.365 z-score
same,binding signal,SNCB,-0.361 z-score
same,binding signal,SNF1LK2 (human),-0.312 z-score
same,binding signal,SNF8 (human),-0.266 z-score
same,binding signal,SNFT,4.53 z-score
same,binding signal,SNIP (human),-0.292 z-score
same,binding signal,SNX1 (human),-0.295 z-score
same,binding signal,SNX10 (human),-0.303 z-score

# In a second layout: results already given.
sequence | measurement | setting | value
GGGAGGCTGAGGCAGG [G4-1 biotinylated (PQS2)] | binding signal | SMOX (human) | -0.274 z-score
same | binding signal | SMPD3 (human) | -0.339 z-score
same | binding signal | SMR3B (human) | -0.319 z-score
same | binding signal | SMUG1 (human) | -0.327 z-score
same | binding signal | SNAP23 (human) | -0.334 z-score
